PubChem BioAssay AID218 (DTP/NCI, 2004)
The list shows only some results of the screen, not a fair sample: it is rich in T/C values a quarter to a half above the control, in often repeated tests (any T/C) and in doses without a T/C. Further doses and runs are listed elsewhere. T/C is the treated group as % of the vehicle group. Schedule codes are those of the source, read here as Q, the interval in days (D) or hours (H), X, the number of doses. Some T/C values carry the count of animals alive at the toxicity check (mostly the fifth day); where none is given, no animal had died by that day. Some doses have a count of surviving animals in place of a T/C: the source holds a T/C of zero for them, seemingly a mark for toxic or unscored doses. Counts of survivors are from the toxicity check (mostly the fifth day) where no day follows; animals may have died later. Some entries were tested several times; their values stand side by side, smallest first. Starred links: 1 amine or outer side, 2 acyl side, 3 side chain; linkers in the order of their positions; H or OH if unused. Positions of bridges follow the written chain, without caps; N, C: chain ends. Non-standard residues stand in square brackets, D forms with d. Residues, ends and D or L forms follow the SMILES beside them. Chains are numbered I, II in the order given. Actinocin(9to1) = Cc1c2oc3c(C)ccc(C(=O)[*:1])c3nc-2c(C(=O)[*:2])c(N)c1=O; aThr = C[C@H](O)[C@H](N)C(=O)O; NMeV = CN[C@H](C(=O)O)C(C)C; Sar = CNCC(=O)O

System: C57BL/6 mice, Adenocarcinoma 755 sc, tumor weight T/C
Test: NCI In Vivo Anticancer Drug Screen. Data for tumor model Adenocarcinoma 755 (subcutaneous) in C57BL/6 mice
Settings: T/C endpoint: mean tumor weight, higher T/C = larger tumour; for T/C: evaluated on day 12
Procedure: The antitumor activity of compounds was measured in mice bearing transplantable tumors. Survival or tumor size were measured and the results are expressed as the measurement made in the treated group (T) divided by the measurement made in the vehicle treated control group (C). The tumor model used in this assay is Adenocarcinoma 755 (subcutaneous) in C57BL/6 mice

[1] = dose: 40.0 mg/kg/injection, schedule: Q01DX011 (ip), vehicle: saline
[2] = dose: 75.0 mg/kg/injection, schedule: Q01DX011 (sc), vehicle: saline
[3] = dose: 100.0 mg/kg/injection, schedule: Q01DX011 (ip), vehicle: saline
[4] = dose: 50.0 mg/kg/injection, schedule: Q01DX011 (ip), vehicle: saline
[5] = dose: 75.0 mg/kg/injection, schedule: Q01DX011 (ip), vehicle: saline
[6] = dose: 75.0 mg/kg/injection, schedule: Q01DX011 (ip), vehicle: carboxymethylcellulose (CMC)

**Q.** Which results are given for `O=C(O)c1[nH]c(=O)[nH]c(=O)c1Br`?
**A.** T/C (dose: 20.0 mg/kg/injection, schedule: Q01DX011 (ip), vehicle: saline): 139 % of control; T/C (dose: 30.0 mg/kg/injection, schedule: Q01DX011 (ip), vehicle: saline): 132 % of control; T/C [1]: 130 % of control

**Q.** How did the survivor count (dose: 150.0 mg/kg/injection, schedule: Q01DX011 (ip), vehicle: saline) turn out when `CCSCCC(N)C(=O)O` (stereo not given) was run?
**A.** 6 of 10

**Q.** Which results are given for `[N-]=[N+]=CC(=O)CCC(N)C(=O)O` (stereo not given)?
**A.** survivor count (dose: 0.04 mg/kg/injection, schedule: Q01DX011 (ip), vehicle: saline): 0 of 10; survivor count (dose: 0.06 mg/kg/injection, schedule: Q01DX011 (ip), vehicle: saline): 0 of 10; survivor count (dose: 0.08 mg/kg/injection, schedule: Q01DX011 (ip), vehicle: saline): 0 of 10 and 2 of 10; survivor count (dose: 0.1 mg/kg/injection, schedule: Q01DX011 (ip), vehicle: saline): 0 of 10; survivor count (dose: 12.0 micrograms/kg/injection, schedule: Q01DX011 (ip), vehicle: saline): 6 of 10

**Q.** Which results are given for `Cn1c(N)nc2nc[nH]c2c1=S`?
**A.** T/C (dose: 8.0 mg/kg/injection, schedule: Q01DX008 (iv), vehicle: saline): 146 % of control; T/C (dose: 16.0 mg/kg/injection, schedule: Q01DX008 (iv), vehicle: saline): 146 % of control; survivor count (dose: 128.0 mg/kg/injection, schedule: Q01DX008 (iv), vehicle: saline): 5 of 10; survivor count (dose: 256.0 mg/kg/injection, schedule: Q01DX008 (iv), vehicle: saline): 0 of 10

**Q.** How did the survivor count (dose: 0.05 mg/kg/injection, schedule: Q01DX011 (ip), vehicle: saline) turn out when `Cc1c2oc3c(C)ccc(C(=O)N[C@@H]4C(=O)N[C@H](C(C)C)C(=O)N5CCC[C@H]5C(=O)N(C)CC(=O)N(C)[C@@H](C(C)C)C(=O)O[C@H]4C)c3nc-2c(C(=O)N[C@@H]2C(=O)N[C@H](C(C)C)C(=O)N3CCC[C@H]3C(=O)N(C)CC(=O)N(C)[C@@H](C(C)C)C(=O)O[C@H]2C)c(N)c1=O` (I: [aThr][dV]P[Sar][NMeV] / II: [aThr][dV]P[Sar][NMeV]; ester I:1-I:C, II:1-II:C; linker I:N-II:N via Actinocin(9to1)) was run?
**A.** 6 of 10

**Q.** With `Nc1nc2n[nH]nc2c(=O)[nH]1` as the molecule, how does the survivor count [2] read?
**A.** 6 of 10

**Q.** How did the survivor count [3] turn out when `O=C(O)C(=O)CF` was run?
**A.** 0 of 10

**Q.** With `O=C(O)CCCc1ccc(N(CCCl)CCCl)cc1` as the molecule, how does the survivor count (dose: 2.0 mg/kg/injection, schedule: Q01DX011 (ip), vehicle: saline) read?
**A.** 5 of 10

**Q.** How did the T/C (dose: 100.0 mg/kg/injection, schedule: Q01DX011 (ip), vehicle: carboxymethylcellulose (CMC)) turn out when `Cn1cnc2ncnc(Cl)c21` was run?
**A.** 143 % of control

**Q.** `Cc1ncc(CO)c(C)c1O` was tested. Which T/C [4] did it give?
**A.** 127 % of control

**Q.** What about the T/C [5] of the same molecule?
**A.** 129 % of control

**Q.** And the T/C [3]?
**A.** 134 % of control

**Q.** For `CCc1c(CC(=O)O)c2cc(C)ccc2n1Cc1ccc(Cl)cc1`, which survivor count [3] is on record?
**A.** 6 of 10

**Q.** For `CSc1ncnc2c1ncn2C1OC(CO)C(O)C1O` (stereo not given), which survivor count (dose: 36.0 mg/kg/injection, schedule: Q01DX011 (ip), vehicle: saline) is on record?
**A.** 0 of 10

**Q.** What about the survivor count (dose: 54.0 mg/kg/injection, schedule: Q01DX011 (ip), vehicle: saline) of the same molecule?
**A.** 0 of 10

**Q.** What does the source list for `CNc1ncnc2c1cnn2C`?
**A.** survivor count [1]: 6 of 10; survivor count (dose: 80.0 mg/kg/injection, schedule: Q01DX011 (ip), vehicle: saline): 0 of 10

**Q.** With `Nc1nncc2[nH]cnc12` as the molecule, how does the survivor count (dose: 50.0 mg/kg/injection, schedule: Q01DX011 (ip), vehicle: carboxymethylcellulose (CMC)) read?
**A.** 3 of 10

**Q.** What about the survivor count [6] of the same molecule?
**A.** 0 of 10

**Q.** For `CC(=O)OCC(=O)[C@@]1(O)CC[C@H]2[C@@H]3CCC4=CC(=O)CC[C@]4(C)[C@H]3C(=O)C[C@@]21C`, which survivor count [2] is on record?
**A.** 4 of 10

**Q.** And the survivor count (dose: 125.0 mg/kg/injection, schedule: Q01DX011 (sc), vehicle: saline)?
**A.** 5 of 10

**Q.** What about the survivor count (dose: 150.0 mg/kg/injection, schedule: Q01DX011 (sc), vehicle: saline) of the same molecule?
**A.** 4 of 10

**Q.** What does the source list for `Cc1c2ccccc2c(C)c2c1ccc1ccccc12`?
**A.** survivor count (dose: 38.0 mg/kg/injection, schedule: Q01DX011 (ip), vehicle: saline): 1 of 10; survivor count (dose: 76.0 mg/kg/injection, schedule: Q01DX011 (ip), vehicle: saline): 0 of 10

**Q.** Which survivor count [4] does the source give for `NNc1ncnc2nc[nH]c12` here?
**A.** 5 of 10

**Q.** And the survivor count [5]?
**A.** 0 of 10

**Q.** For `COC1=C(N)C(=O)c2nc(-c3nc(C(=O)O)c(C)c(-c4ccc(OC)c(OC)c4O)c3N)ccc2C1=O`, which survivor count (dose: 0.2 mg/kg/injection, schedule: Q01DX011 (ip), vehicle: saline) is on record?
**A.** 1 of 10

**Q.** And the survivor count (dose: 0.3 mg/kg/injection, schedule: Q01DX011 (ip), vehicle: saline)?
**A.** 0 of 10

**Q.** And the survivor count (dose: 0.45 mg/kg/injection, schedule: Q01DX011 (ip), vehicle: saline)?
**A.** 0 of 10

**Q.** What about the survivor count (dose: 0.66 mg/kg/injection, schedule: Q01DX011 (ip), vehicle: saline) of the same molecule?
**A.** 0 of 10

**Q.** How did the survivor count (dose: 500.0 mg/kg/injection, schedule: Q01DX011 (ip), vehicle: saline) turn out when `CCOC(N)=O` was run?
**A.** 5 of 10

**Q.** What about the survivor count (dose: 800.0 mg/kg/injection, schedule: Q01DX011 (ip), vehicle: saline) of the same molecule?
**A.** 4 of 10

**Q.** What about the survivor count (dose: 1000.0 mg/kg/injection, schedule: Q01DX011 (ip), vehicle: saline) of the same molecule?
**A.** 0 of 10

**Q.** `CCOC(C)C(/C=N/NC(N)=S)=NNC(N)=S` (stereo not given) was tested. Which survivor count (dose: 240.0 mg/kg/injection, schedule: Q01DX011 (ip), vehicle: saline) did it give?
**A.** 1 of 10

**Q.** What about the survivor count (dose: 480.0 mg/kg/injection, schedule: Q01DX011 (ip), vehicle: saline) of the same molecule?
**A.** 0 of 10

**Q.** With `CC1CCOS(=O)O1` (stereo not given) as the molecule, how does the T/C (dose: 24.0 mg/kg/injection, schedule: Q01DX011 (ip), vehicle: carboxymethylcellulose (CMC)) read?
**A.** 139 % of control

**Q.** What about the T/C (dose: 36.0 mg/kg/injection, schedule: Q01DX011 (ip), vehicle: carboxymethylcellulose (CMC)) of the same molecule?
**A.** 145 % of control [8 of 10 alive]

**Q.** And the survivor count (dose: 54.0 mg/kg/injection, schedule: Q01DX011 (ip), vehicle: carboxymethylcellulose (CMC))?
**A.** 6 of 10

**Q.** What about the survivor count (dose: 81.0 mg/kg/injection, schedule: Q01DX011 (ip), vehicle: carboxymethylcellulose (CMC)) of the same molecule?
**A.** 1 of 10

**Q.** With `OCC1OC(n2cnc3cncnc32)C(O)C1O` (stereo not given) as the molecule, how does the survivor count (dose: 15.0 mg/kg/injection, schedule: Q01DX011 (ip), vehicle: saline) read?
**A.** 0 of 10

**Q.** And the survivor count (dose: 25.0 mg/kg/injection, schedule: Q01DX011 (ip), vehicle: saline)?
**A.** 0 of 10

**Q.** How did the survivor count (dose: 40.0 mg/kg/injection, schedule: Q02DX006 (ip), vehicle: saline) turn out when `Nc1[nH]c(=S)nc2nc[nH]c12` was run?
**A.** 0 of 10

**Q.** `O=C([O][Hg][CH2]C1COC([CH2][Hg][O]C(=O)c2ccccc2)CO1)c1ccccc1` (stereo not given) was tested. Which T/C (dose: 8.0 mg/kg/injection, schedule: Q01DX009 (ip), vehicle: saline) did it give?
**A.** 128 % of control

**Q.** And the survivor count (dose: 64.0 mg/kg/injection, schedule: Q01DX010 (ip), vehicle: saline)?
**A.** 3 of 10

**Q.** And the survivor count (dose: 128.0 mg/kg/injection, schedule: Q01DX010 (ip), vehicle: saline)?
**A.** 0 of 10

**Q.** With `Nc1nc(F)nc2c1ncn2C1OC(CO)C(O)C1O` (stereo not given) as the molecule, how does the survivor count (dose: 3.0 mg/kg/injection, schedule: Q01DX011 (ip), vehicle: carboxymethylcellulose (CMC)) read?
**A.** 1 of 10

**Q.** Which survivor count (dose: 2000.0 mg/kg/injection, schedule: Q01DX011 (ip), vehicle: saline) does the source give for `CN1CC(=O)N=C1N` here?
**A.** 0 of 10

**Q.** Which T/C [6] does the source give for `Cn1cnc2[nH]cnc(=S)c21` here?
**A.** 147 % of control

**Q.** Which survivor count (dose: 50.0 mg/kg/injection, schedule: Q01DX011 (ip), vehicle: methylcellulose (MC)) does the source give for `CS(=O)(=O)OCCC(=O)N1CCN(C(=O)CCOS(C)(=O)=O)CC1` here?
**A.** 1 of 10

**Q.** `CN(Cc1cnc2nc(N)nc(N)c2n1)c1ccc(C(=O)N[C@@H](CCC(=O)O)C(=O)O)cc1` was tested. Which survivor count (dose: 1.0 mg/kg/injection, schedule: Q01DX011 (ip), vehicle: saline) did it give?
**A.** 6 of 10

**Q.** How did the survivor count (dose: 200.0 mg/kg/injection, schedule: Q01DX011 (ip), vehicle: saline) turn out when `CC(C)Sc1nc(N)nc2nc[nH]c12` was run?
**A.** 5 of 10
